Experimental data as given in article PMC4816682.
No constants are given. Whether binding was seen depends on the method and setting. Some binding calls cover weakened binding; strength is not graded here.

By UniProt entry, the sequences of proteins in these tests, tags left out.
UniProt P22317: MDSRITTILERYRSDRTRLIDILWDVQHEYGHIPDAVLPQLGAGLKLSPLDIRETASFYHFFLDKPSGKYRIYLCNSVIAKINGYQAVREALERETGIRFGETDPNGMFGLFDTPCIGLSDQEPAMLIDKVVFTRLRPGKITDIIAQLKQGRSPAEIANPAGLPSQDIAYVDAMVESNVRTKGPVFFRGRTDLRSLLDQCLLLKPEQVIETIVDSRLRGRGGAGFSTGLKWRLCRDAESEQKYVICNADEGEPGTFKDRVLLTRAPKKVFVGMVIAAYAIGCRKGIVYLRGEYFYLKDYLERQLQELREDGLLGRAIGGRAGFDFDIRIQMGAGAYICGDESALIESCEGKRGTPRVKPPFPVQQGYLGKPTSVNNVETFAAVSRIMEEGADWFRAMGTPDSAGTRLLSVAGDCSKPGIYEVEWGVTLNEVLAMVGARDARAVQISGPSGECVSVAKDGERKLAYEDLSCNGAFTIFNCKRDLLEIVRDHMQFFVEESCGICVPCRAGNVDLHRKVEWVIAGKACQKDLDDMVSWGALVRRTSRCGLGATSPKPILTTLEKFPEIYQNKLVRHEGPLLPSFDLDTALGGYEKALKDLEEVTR
UniProt P22320: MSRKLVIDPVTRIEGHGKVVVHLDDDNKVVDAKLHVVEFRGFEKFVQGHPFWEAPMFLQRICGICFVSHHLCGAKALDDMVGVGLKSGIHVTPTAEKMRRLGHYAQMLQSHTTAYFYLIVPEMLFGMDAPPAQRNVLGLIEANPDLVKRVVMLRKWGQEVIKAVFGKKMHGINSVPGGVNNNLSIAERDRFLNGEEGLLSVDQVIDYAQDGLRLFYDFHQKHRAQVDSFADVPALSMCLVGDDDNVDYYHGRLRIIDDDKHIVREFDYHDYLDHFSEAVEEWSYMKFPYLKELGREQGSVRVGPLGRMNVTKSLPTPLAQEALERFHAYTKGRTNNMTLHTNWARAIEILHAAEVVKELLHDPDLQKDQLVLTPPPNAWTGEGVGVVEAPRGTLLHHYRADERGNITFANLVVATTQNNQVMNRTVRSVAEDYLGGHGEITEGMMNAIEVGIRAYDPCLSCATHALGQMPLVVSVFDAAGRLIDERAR
UniProt P22318: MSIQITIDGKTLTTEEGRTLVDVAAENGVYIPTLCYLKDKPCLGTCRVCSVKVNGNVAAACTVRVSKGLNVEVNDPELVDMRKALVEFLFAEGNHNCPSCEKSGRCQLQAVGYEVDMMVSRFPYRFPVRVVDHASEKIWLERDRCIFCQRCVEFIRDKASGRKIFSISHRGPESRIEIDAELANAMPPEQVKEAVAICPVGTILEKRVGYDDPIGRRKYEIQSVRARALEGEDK
UniProt P22319: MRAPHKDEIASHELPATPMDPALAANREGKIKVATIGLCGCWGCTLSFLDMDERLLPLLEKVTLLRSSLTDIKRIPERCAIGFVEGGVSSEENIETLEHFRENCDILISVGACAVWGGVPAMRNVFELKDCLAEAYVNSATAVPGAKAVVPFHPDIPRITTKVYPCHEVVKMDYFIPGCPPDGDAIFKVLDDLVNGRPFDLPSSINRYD

Target: HoxF NAD-reducing hydrogenase diaphorase moiety large subunit [R. eutropha H16] (R. eutropha H16) (UniProt P22317)
Assay: SEC; endogenous soluble hydrogenase followed by its activity through ammonium sulphate fractionation, Q Sepharose FF, RESOURCE Q and Superdex 200 10/300 GL (50 mM KPi with 150 mM NaCl, 4 °C, aerobic); the five bands of the SH fraction on SDS-PAGE identified by mass spectrometry; no bait

binding, binds:
HoxH NAD-reducing hydrogenase moiety large subunit [R. eutropha H16] (from UniProt P22320 1-488), HoxU NAD-reducing hydrogenase diaphorase moiety small subunit [R. eutropha H16] (from UniProt P22318 1-234), HoxY NAD-reducing hydrogenase moiety small subunit [R. eutropha H16] (from UniProt P22319 1-209)
